# Laboratory results from the supplement of paper PMC12819154, “High-throughput peptide-centric local stability assay extends protein–ligand identification to membrane proteins, tissues and bacteria” (Nature Structural & Molecular Biology, 2025).
# Chains of the proteins cited; added tags and fusions are not shown. Lines headed by an entry give the natural chain unless they say otherwise; changes in a name come on top.
# UniProt Q8WY54: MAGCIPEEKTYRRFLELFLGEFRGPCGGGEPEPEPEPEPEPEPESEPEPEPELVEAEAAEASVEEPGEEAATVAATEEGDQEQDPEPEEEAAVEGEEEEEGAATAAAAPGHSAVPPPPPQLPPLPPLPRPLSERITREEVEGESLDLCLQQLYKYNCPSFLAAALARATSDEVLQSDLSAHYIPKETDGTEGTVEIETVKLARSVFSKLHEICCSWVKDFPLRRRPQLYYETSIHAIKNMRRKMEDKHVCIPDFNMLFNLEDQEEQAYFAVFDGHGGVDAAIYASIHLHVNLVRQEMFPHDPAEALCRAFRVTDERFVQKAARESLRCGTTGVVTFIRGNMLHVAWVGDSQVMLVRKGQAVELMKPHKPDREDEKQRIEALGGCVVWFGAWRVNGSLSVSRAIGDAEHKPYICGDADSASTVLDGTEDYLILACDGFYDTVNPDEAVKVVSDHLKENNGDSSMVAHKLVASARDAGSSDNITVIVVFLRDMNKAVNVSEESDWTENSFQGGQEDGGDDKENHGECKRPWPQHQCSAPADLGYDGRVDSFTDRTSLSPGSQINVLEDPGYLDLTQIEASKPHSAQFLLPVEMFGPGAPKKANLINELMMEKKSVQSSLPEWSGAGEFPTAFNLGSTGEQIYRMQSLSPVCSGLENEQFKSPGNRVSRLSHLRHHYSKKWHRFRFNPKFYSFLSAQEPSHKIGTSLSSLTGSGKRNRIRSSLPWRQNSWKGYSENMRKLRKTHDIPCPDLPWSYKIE
# UniProt Q8WVY7: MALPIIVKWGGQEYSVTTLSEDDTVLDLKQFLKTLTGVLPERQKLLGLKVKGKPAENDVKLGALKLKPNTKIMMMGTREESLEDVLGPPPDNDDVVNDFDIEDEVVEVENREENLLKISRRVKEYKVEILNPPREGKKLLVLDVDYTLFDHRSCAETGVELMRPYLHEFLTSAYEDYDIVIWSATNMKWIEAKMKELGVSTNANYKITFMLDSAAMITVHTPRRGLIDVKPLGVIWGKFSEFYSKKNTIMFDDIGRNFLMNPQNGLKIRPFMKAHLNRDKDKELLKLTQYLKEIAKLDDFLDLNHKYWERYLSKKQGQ
# UniProt Q8TAE6: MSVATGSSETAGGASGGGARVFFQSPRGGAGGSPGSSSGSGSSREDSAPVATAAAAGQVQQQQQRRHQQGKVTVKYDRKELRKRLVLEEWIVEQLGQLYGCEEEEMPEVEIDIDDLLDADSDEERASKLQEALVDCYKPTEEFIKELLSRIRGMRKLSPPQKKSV
# UniProt Q8WUR7: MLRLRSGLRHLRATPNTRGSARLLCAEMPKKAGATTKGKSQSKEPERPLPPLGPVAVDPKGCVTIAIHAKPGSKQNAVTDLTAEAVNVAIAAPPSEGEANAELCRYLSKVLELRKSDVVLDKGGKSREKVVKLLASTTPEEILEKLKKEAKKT
# UniProt Q92530: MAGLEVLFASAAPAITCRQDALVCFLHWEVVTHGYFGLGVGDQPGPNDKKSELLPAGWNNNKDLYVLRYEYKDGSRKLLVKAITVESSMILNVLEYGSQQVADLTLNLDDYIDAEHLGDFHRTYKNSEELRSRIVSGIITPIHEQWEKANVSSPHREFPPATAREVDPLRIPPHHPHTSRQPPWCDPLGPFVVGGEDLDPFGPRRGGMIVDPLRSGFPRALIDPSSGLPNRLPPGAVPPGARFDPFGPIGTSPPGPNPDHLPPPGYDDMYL
# UniProt Q8TEW0: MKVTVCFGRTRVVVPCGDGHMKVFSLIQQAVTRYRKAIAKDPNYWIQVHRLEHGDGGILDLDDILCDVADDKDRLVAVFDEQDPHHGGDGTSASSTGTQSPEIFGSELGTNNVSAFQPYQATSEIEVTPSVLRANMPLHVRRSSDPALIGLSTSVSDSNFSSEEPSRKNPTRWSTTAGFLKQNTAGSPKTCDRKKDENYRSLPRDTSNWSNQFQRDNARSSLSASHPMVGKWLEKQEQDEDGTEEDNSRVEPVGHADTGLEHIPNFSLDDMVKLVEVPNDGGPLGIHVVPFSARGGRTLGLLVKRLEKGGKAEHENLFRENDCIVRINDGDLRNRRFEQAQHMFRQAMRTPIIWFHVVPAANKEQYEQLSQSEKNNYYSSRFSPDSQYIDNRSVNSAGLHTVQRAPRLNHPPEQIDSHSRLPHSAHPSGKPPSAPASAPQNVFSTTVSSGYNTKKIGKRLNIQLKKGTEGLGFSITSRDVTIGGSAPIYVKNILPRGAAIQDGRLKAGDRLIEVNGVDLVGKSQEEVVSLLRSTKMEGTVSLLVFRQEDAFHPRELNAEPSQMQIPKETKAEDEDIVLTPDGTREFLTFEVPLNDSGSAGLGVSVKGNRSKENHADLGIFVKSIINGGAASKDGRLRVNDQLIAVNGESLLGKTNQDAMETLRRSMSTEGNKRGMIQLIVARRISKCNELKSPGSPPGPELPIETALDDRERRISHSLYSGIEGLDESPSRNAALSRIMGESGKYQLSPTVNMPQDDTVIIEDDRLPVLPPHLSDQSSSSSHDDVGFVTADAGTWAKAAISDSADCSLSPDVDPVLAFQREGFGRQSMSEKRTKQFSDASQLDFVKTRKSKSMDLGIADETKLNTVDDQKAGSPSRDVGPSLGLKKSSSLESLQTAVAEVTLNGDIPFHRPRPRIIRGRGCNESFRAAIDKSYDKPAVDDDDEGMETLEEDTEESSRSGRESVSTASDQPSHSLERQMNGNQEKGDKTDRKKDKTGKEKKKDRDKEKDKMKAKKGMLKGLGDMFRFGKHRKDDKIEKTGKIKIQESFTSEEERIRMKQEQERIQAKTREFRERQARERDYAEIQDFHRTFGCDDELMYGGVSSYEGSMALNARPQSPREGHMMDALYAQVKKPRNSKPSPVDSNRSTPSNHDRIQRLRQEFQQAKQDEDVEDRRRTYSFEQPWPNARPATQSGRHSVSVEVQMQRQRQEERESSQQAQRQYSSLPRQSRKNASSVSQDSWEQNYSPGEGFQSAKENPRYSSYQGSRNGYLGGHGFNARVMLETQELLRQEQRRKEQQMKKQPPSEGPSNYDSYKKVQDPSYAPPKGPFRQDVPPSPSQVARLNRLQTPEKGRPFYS
# UniProt Q8TAU3: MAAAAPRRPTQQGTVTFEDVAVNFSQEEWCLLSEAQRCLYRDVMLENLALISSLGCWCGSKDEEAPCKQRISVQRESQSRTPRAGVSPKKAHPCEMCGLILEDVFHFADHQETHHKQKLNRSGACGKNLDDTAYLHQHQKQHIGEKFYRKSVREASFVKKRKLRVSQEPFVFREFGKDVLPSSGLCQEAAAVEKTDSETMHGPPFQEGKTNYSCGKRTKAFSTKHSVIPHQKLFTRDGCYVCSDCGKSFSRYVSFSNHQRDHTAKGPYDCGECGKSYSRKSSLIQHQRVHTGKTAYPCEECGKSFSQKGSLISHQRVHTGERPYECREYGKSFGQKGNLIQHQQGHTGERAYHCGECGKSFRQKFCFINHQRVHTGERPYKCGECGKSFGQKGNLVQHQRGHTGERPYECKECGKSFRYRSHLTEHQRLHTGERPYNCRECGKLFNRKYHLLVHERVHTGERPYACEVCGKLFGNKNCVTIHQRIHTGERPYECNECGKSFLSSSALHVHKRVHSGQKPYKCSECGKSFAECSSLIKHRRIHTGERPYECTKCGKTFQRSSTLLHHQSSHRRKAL
# UniProt Q8WTU0: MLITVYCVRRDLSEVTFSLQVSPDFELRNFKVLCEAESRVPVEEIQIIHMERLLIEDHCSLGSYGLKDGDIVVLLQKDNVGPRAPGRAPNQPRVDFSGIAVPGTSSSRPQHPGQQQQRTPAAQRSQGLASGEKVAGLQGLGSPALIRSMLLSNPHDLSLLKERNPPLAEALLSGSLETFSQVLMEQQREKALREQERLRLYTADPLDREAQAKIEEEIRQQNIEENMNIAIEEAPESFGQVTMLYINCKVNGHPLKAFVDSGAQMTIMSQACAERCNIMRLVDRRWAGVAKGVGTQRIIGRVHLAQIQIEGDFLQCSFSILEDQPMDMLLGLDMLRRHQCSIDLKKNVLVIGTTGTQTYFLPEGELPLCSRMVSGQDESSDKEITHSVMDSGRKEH
# UniProt Q8WV74: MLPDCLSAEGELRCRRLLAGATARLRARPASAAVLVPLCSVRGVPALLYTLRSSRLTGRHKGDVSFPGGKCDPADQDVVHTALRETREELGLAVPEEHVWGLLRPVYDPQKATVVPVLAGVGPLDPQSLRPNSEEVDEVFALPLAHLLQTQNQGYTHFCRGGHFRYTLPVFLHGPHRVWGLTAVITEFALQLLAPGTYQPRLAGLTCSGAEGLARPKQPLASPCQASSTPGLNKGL
# UniProt Q92597: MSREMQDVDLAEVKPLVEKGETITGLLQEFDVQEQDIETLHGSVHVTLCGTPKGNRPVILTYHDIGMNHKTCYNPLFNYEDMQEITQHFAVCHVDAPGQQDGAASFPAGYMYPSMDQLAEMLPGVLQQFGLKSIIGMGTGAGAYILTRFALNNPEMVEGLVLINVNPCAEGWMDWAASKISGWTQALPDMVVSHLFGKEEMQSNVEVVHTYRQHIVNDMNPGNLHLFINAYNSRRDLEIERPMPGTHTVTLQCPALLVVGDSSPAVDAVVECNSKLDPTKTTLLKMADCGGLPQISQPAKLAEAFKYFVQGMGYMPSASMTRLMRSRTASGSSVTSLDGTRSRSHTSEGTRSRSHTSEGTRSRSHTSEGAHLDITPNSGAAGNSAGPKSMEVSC
# UniProt Q92539: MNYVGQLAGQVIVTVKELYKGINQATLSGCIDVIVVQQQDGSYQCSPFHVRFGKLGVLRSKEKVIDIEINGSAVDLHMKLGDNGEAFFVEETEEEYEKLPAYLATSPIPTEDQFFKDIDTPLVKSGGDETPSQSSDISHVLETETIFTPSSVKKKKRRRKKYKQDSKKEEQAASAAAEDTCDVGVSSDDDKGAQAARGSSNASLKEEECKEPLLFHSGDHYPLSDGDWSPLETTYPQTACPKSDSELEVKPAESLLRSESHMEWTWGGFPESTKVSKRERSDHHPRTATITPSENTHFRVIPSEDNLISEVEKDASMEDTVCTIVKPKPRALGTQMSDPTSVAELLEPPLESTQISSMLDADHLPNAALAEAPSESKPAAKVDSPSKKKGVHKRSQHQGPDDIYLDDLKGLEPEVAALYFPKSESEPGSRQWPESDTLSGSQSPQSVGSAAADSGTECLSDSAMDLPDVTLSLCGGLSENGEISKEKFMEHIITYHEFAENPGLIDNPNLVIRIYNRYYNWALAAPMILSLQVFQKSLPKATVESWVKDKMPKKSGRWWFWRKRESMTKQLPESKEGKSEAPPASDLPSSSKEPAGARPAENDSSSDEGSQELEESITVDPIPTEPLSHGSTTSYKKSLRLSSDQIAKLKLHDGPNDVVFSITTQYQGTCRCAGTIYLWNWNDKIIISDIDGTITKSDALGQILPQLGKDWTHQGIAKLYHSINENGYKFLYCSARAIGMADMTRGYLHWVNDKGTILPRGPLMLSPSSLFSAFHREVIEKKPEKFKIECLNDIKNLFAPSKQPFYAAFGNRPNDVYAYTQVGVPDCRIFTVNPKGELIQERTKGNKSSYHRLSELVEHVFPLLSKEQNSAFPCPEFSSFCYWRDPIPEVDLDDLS
# UniProt Q8TAA3: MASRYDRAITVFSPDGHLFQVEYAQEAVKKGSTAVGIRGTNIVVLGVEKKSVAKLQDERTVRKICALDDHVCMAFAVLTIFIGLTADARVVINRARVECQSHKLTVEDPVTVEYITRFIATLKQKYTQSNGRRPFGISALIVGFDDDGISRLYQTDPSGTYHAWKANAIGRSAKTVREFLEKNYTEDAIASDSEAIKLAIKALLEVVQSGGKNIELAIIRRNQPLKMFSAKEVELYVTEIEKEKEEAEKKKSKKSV
# UniProt Q8WUM9: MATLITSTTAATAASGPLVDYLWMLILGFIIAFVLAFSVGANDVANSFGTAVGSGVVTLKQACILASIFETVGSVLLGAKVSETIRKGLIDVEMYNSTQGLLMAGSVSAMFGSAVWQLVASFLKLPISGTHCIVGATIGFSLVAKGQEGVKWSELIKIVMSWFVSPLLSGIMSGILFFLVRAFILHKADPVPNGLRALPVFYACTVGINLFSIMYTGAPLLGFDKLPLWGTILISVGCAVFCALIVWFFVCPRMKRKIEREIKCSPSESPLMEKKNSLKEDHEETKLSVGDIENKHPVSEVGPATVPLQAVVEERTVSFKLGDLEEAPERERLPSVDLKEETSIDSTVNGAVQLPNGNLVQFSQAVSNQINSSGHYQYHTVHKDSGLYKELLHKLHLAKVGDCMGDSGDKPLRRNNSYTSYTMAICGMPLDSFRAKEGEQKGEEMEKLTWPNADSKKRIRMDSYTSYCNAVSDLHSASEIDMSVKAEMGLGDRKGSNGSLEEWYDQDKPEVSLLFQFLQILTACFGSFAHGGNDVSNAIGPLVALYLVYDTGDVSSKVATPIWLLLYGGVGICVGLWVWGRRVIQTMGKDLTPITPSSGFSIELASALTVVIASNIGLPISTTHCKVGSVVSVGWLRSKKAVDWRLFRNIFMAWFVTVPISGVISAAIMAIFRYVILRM
# The list shows a part of the results. Most values lie at the level of the controls, where differences are scatter.
# Compound: Cc1nc(Nc2ncc(C(=O)Nc3c(C)cccc3Cl)s2)cc(N2CCN(CCO)CC2)n1 [dasatinib]
# Assay: log2 fold change of tryptic peptide abundance, ligand vs vehicle (limited proteolysis) (log2 ratio); higher = more trypsin-susceptible (destabilized)
# Details: ligand concentration: 5 uM; sample: K562 cleared lysate
row,Target,log2 fold change
1,"BAP1 (peptide sequence: FKIDDQR, peptide start residue: 660) (UniProt Q92560)",0.399
2,"PPM1E (peptide sequence: RRPQLYYETSIHAIK, peptide start residue: 224) (UniProt Q8WY54)",0.258
3,"GATAD2B (peptide sequence: TLQGHSVIR, peptide start residue: 241) (UniProt Q8WXI9)",-0.121
4,"UBLCP1 (peptide sequence: EYKVEILNPPREGK, peptide start residue: 124) (UniProt Q8WVY7)",-0.669
5,"PPP1R14C (peptide sequence: KLSPPQKK, peptide start residue: 156) (UniProt Q8TAE6)",-0.28
6,"C15orf40 (peptide sequence: GCVTIAIHAKPGSK, peptide start residue: 61) (UniProt Q8WUR7)",-0.0665
7,"PHF3 (peptide sequence: QDQQQLDRPFNR, peptide start residue: 1904) (UniProt Q92576)",-0.281
8,"BBX (peptide sequence: FNSLPQYSPVTFDRK, peptide start residue: 697) (UniProt Q8WY36)",0.426
9,"CXorf38 (peptide sequence: NGDVHWGNCRPGR, peptide start residue: 95) (UniProt Q8TB03)",0.513
10,"PSMF1 (peptide sequence: IVSGIITPIHEQWEK, peptide start residue: 134) (UniProt Q92530)",-0.149
11,"STAG1 (peptide sequence: FLTEQMMER, peptide start residue: 1029) (UniProt Q8WVM7)",0.282
12,"PARD3 (peptide sequence: TNQDAMETLRR, peptide start residue: 654) (UniProt Q8TEW0)",-0.72
13,"ZCRB1 (peptide sequence: KWKPSSGVPSTSDDSR, peptide start residue: 184) (UniProt Q8TBF4)",-0.209
14,"ZNF417 (peptide sequence: TAYPCEECGK, peptide start residue: 294) (UniProt Q8TAU3)",0.351
15,"UniProt Q8WTU0 (peptide sequence: HQCSIDLK, peptide start residue: 330)",-0.226
16,"DCAF4 (peptide sequence: ADIPSVAFSSR, peptide start residue: 461) (UniProt Q8WV16)",0.285
17,"NUDT8 (peptide sequence: LAGLTCSGAEGLARPK, peptide start residue: 202) (UniProt Q8WV74)",0.223
18,"NT5C (peptide sequence: LLSWSDNWR, peptide start residue: 180) (UniProt Q8TCD5)",0.177
19,"NDRG1 (peptide sequence: SHTSEGTR, peptide start residue: 344) (UniProt Q92597)",0.283

# Pulled one by one from the entries so far (two):
row,Target,log2 fold change
1,"BAP1 (peptide sequence: FKIDDQR, peptide start residue: 660) (UniProt Q92560)",0.399
16,"DCAF4 (peptide sequence: ADIPSVAFSSR, peptide start residue: 461) (UniProt Q8WV16)",0.285

# Next part

row,Target,log2 fold change
1,"SEC14L1 (peptide sequence: GKIPKDEHILR, peptide start residue: 272) (UniProt Q92503)",-0.205
2,"DDX54 (peptide sequence: CSTLIVTDLAAR, peptide start residue: 389) (UniProt Q8TDD1)",0.12
3,"LPIN2 (peptide sequence: SDSELEVKPAESLLR, peptide start residue: 243) (UniProt Q92539)",-0.831
4,"UniProt Q8TE02 (peptide sequence: DSVEWEGR, peptide start residue: 32)",0.149
5,"PSMA8 (peptide sequence: LYQTDPSGTYHAWK, peptide start residue: 144) (UniProt Q8TAA3)",0.0212
6,"THAP4 (peptide sequence: SQVCCLREQVEKK, peptide start residue: 357) (UniProt Q8WY91)",-0.209
7,"GEMIN5 (peptide sequence: EEKNEPLSLPELTKR, peptide start residue: 1423) (UniProt Q8TEQ6)",-0.211
8,"UniProt Q8TDG4 (peptide sequence: KHATDFATENLCSESIKNK, peptide start residue: 138)",0.56
9,"JADE3 (peptide sequence: NTEDLQCYVKPTK, peptide start residue: 726) (UniProt Q92613)",0.28
10,"TFB1M (peptide sequence: SLCDVYRK, peptide start residue: 302) (UniProt Q8WVM0)",0.635
11,"H1FX (peptide sequence: KKLEGGGER, peptide start residue: 119) (UniProt Q92522)",-0.174
12,"PIBF1 (peptide sequence: QNMELSVR, peptide start residue: 326) (UniProt Q8WXW3)",0.403
13,"HSPH1 (peptide sequence: KPVTDCVISVPSFFTDAERR, peptide start residue: 135) (UniProt Q92598)",0.194
14,"UniProt Q8TAP9 (peptide sequence: DGYGSPHHTPPYGPR, peptide start residue: 43)",-0.0952
15,"SMG7 (peptide sequence: SVMAQQANIDRR, peptide start residue: 882) (UniProt Q92540)",-0.149
16,"UniProt Q8TF76 (peptide sequence: DRPSLTVTPK, peptide start residue: 90)",-0.231
17,"SCARB1 (peptide sequence: IHLVDKWNGLSK, peptide start residue: 231) (UniProt Q8WTV0)",-0.295
18,"SLC20A1 (peptide sequence: LGDLEEAPER, peptide start residue: 321) (UniProt Q8WUM9)",0.381
19,"PRPF31 (peptide sequence: FDKWQEPPPVK, peptide start residue: 328) (UniProt Q8WWY3)",-0.127
